Results reported in patent US11452758B2, “Antimicrobial peptide derived from LL37 peptide and uses thereof” (INDUSTRY-ACADEMIC COOPERATION FOUNDATION, CHOSUN UNIVERSITY, priority 2018, dated 2022).
At least one peptide structure holds a part that was inferred or is arguable (an end, a ring closure or a residue). Where a SMILES comes first, the peptide text is derived from it.

Experiments:
[1] = system: Acinetobacter baumannii KCTC 2508; assay: Low vacuum scanning electron microscopy (membrane-disrupting property); format: cell-based; settings: peptide at MIC concentration, 30 minutes at 37° C.
Method: To specifically determine the degree of antimicrobial activity of the synthesized peptides of the present invention, the influence of mother peptide LL37 and homologous peptides LL37-1, LL37-2, LL37-3 and LL37-4 on bacteria membrane, i.e., membrane-disrupting property, was determined by low vacuum scanning electron microscopy.
Specifically, Acinetobacter baumannii KCTC 2508 cells were cultured to a mid-log phase in MHB medium, and then diluted to a cell concentration of 2×10^7 cells/ml in physiological saline containing 10% MHB medium. […] After that, by using 2.5% glutaraldehyde, the bacterial cells were fixed for 30 minutes at room temperature and then for 12 hours at 4° C. After carrying out washing with buffer, the cells were fixed again with […] and dehydrated in stepwise manner by using ethanol. After the dehydration, platinum coating was carried out and the cells were observed by low vacuum scanning electron microscopy.

A. baumannii #5 = assay: Antibiofilm activity, Crystal violet staining; format: cell-based, Acinetobacter baumannii; settings: 24 hours
Method: (§1) To compare the antimicrobial activity among the peptides produced by the method of Example 1, the inventors of the present invention measured the biofilm inhibitory concentration value of the peptide for not allowing any dissociation of bacterial cells.
(§2) Specifically, among the bacterial strains described in the above Table 2, bacteria showing the most favorable biofilm forming were cultured to a mid-log phase in a medium with suitable composition. Then, after dilution to bacterial cell concentration of 1×10^6 cells/50 μl, the cells were inoculated to a microtiter plate. Thereafter, LL37, LL37-1, LL37-2, LL37-3 or LL37-4 peptide which has been synthesized in Example 1 above was diluted, 1/10 times for each, with 10 mM phosphate buffered physiological saline (PBS) in a 96-well plate. After adding the peptide (50 μl) to each well of the plate, the cells were cultured for 24 hours at 37° C. After removing the supernatant completely, the cells were fixed with 100% methanol for 15 minutes and stained for 1 hour with Crystal violet staining solution followed by rinsing for 3 times. Then, after dissolving in 95% ethanol, the absorbance was measured at a wavelength of 595 nm by using a microtiter plate reader to determine the biofilm minimal inhibitory concentration value of each bacterial strain.

A. baumannii KCTC 2508 = assay: Antibiofilm activity, Crystal violet staining; format: cell-based, Acinetobacter baumannii; settings: 24 hours
Method: as §1, §2

A. baumannii #10 = assay: Antibiofilm activity, Crystal violet staining; format: cell-based, Acinetobacter baumannii; settings: 24 hours
Method: as §1, §2

[2] = system: Acinetobacter baumannii KCTC 2508; assay: Flow cytometry after PI staining (bacteria membrane); format: cell-based; settings: peptide at concentration of MIC, 30 minutes at 37° C.
Method: To determine whether or not the peptides prepared by the method of Example 1 have any effect on bacteria membrane, an analysis was made by flow cytometry.
After that, the supernatant was removed by centrifuge (10,000 rpm) and stained with propidium iodide (PI, concentration of 10 μg/ml) for 30 minutes at 4° C. Thereafter, unbound propidium iodide was removed by centrifuge, and the problem of cell aggregation phenomenon was solved by adding physiological saline (PBS) in an amount of 1 ml.

[3] = system: Human macrophage cells (U937) infected with Acinetobacter baumannii KCTC 2508; assay: Expression of inflammatory cytokines, Western blot and real time RT-PCR; format: cell-based; settings: U937 infected with A. baumannii KCTC 2508, peptide added 1 hour after infection, sample after 9 hours
Method: To see whether or not a change in expression of inflammatory cytokines in macrophage is caused by the peptides that are prepared by the method of above Example 1, determination was made by Western blot and real time reverse transcription polymerase chain reaction.
Specifically, Acinetobacter baumannii KCTC 2508 cells were cultured to a mid-log phase in MHB medium, and then diluted to a cell concentration of 1×10^7 cells/ml in physiological saline. Human macrophage cells (U937) were then infected with the resulting cells in time-dependent manner to yield the first sample, and another macrophage cells were infected with Acinetobacter baumannii KCTC 2508 cells, which have been diluted to a concentration of 1×10^7 cells, and added with, 1 hour after the infection, mother peptide LL37 or the homologous peptide to collect the second sample after 9 hours. Both collected samples were treated with cell lysis buffer to obtain the supernatant (sup) and pellet (lysate). Thereafter, by Western blot and real time reverse transcription polymerase chain reaction, a change in the expression level of inflammatory cytokines was examined.

SMILES: CC[C@H](C)[C@H](NC(=O)[C@H](CCCNC(=N)N)NC(=O)[C@H](CCC(N)=O)NC(=O)[C@@H](NC(=O)[C@@H](NC(=O)[C@H](CCCNC(=N)N)NC(=O)[C@H](CCCCN)NC(=O)[C@H](Cc1ccccc1)NC(=O)[C@H](CCC(=O)O)NC(=O)[C@@H](N)CCCCN)[C@@H](C)CC)C(C)C)C(=O)N[C@@H](CCCCN)C(=O)N[C@@H](CC(=O)O)C(=O)N[C@@H](Cc1ccccc1)C(=O)N[C@@H](CC(C)C)C(=O)N[C@@H](CCCNC(=N)N)C(=O)N[C@@H](CC(N)=O)C(N)=O [LL37-1, KEFKRIVQRIKDFLRN-NH2] (H-KEFKRIVQRIKDFLRN-NH2)
- membrane-disrupting property (scanning electron microscopy) [1]: disruption of bacteria membrane
- Biofilm forming ability (A. baumannii #5; peptide 2 μM): 70%
- Biofilm forming ability (A. baumannii #5; peptide 4 μM): 63%
- Biofilm forming ability (A. baumannii #5; peptide 8 μM): 60%
- Biofilm forming ability (A. baumannii #5; peptide 16 μM): 59%
- Biofilm forming ability (A. baumannii #5; peptide 32 μM): 26%
- Biofilm forming ability (A. baumannii KCTC 2508; peptide 2 μM): 42%
- Biofilm forming ability (A. baumannii KCTC 2508; peptide 4 μM): 34%
- Biofilm forming ability (A. baumannii KCTC 2508; peptide 8 μM): 33%
- Biofilm forming ability (A. baumannii KCTC 2508; peptide 16 μM): 29%
- Biofilm forming ability (A. baumannii KCTC 2508; peptide 32 μM): 27%
- Biofilm forming ability (A. baumannii #10; peptide 2 μM): 63%
- Biofilm forming ability (A. baumannii #10; peptide 4 μM): 53%
- Biofilm forming ability (A. baumannii #10; peptide 8 μM): 36%
- Biofilm forming ability (A. baumannii #10; peptide 16 μM): 36%
- Biofilm forming ability (A. baumannii #10; peptide 32 μM): 36%
- effect on bacteria membrane (PI fluorescence, flow cytometry) [2]: bacteria membrane was damaged
- expression level of HMGB-1 and late cytokine (IL-1b and TNF-α) [3]: increase in expression level of HMGB-1 and late cytokine is lower
